Data as given in PubChem BioAssay AID624291 (National Center for Advancing Translational Sciences (NCATS), 2012).
Hit rate of the full screen: of about 350,000 compounds, about 220 (0.063%) were called active. The shares of active, inactive and inconclusive entries below differ from those in the screen. The call rests on the fitted dose curve; in most records, active means well fitted activation curve with a large enough effect; inconclusive means small, poorly fitted or top-dose-only effect; inactive means no such curve, though single readings can be large or run the other way. Potencies of inconclusive entries are doubtful fits and often do not repeat.

Assay: qHTS for Activators of Integrin-Mediated Alleviation for Muscular Dystrophy; further: nearly all actives have a fitted effect of over 60% in size;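 on activation: 100% = response of the positive control SU9516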
Conditions: alpha7betagal myoblasts, beta-gal FDG fluorescence, 48 h; activation: at 38.3 µM (top of the series)
Procedure, shortened: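 Alpha7betagal+/- myoblasts (passage 13) were plated 16-24 hr, then exposed to compounds (1:260 dilution of DMSO stock) for 48 hours at 37C. After MPER lysis, β-galactosidase reporter activity was read as FDG fluorescence (ex 480/em 540) after 30 minutes.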
Potency means the concentration at half of the fitted maximal effect.

SMILES | Potency | activation
O=C(c1ccc(F)cc1)C1CCN(C(=O)NCc2ccccc2)CC1 | inactive | 
Cc1c(C(=O)OC(C)C)sc(NC(=O)c2cnccn2)c1C(=O)OC(C)C | inconclusive: 22.4 µM [activator, single point] | 
CN(C(=O)c1ccc(F)c(S(=O)(=O)N2CCOCC2)c1)C1CCCCC1 | inconclusive: 3.16 µM [activator, single point] | 
CN(C)S(=O)(=O)c1cccc(C(=O)NCC(=O)NC2CCN(Cc3ccccc3)CC2)c1 | inactive | 
Cc1cc(NCCCn2ccnc2)n2ncc(-c3ccccc3)c2n1 | inactive | 
COc1ccc(-c2cc(C(F)(F)F)nc(SCC(=O)NCCCN3CCOCC3)n2)cc1 |  | inconclusive: 2.94% [activator]
O=C(CCCc1ccccc1)NC12CC3CC(CC(C3)C1)C2 | inactive | 
CC1(C)Cc2c(sc(NC(=O)c3ccc(S(=O)(=O)N4CCCC4)cc3)c2C#N)C(C)(C)N1 | inconclusive: 28.2 µM [activator, single point] | 
COc1ccccc1S(=O)(=O)Nc1ccc(-c2nnc3n2CCCCC3)cc1 | inactive | 
COCC(=O)Nc1nnc(-c2cccs2)s1 | inconclusive: 11.2 µM [activator, partial curve, poor fit] | 
Cc1ccc(C(=O)Cn2nnc3ccccc32)cc1[N+](=O)[O-] | inconclusive: 5.01 µM [activator, single point] | 
CC1CC(C)CN(CCCNC(=O)c2cc3c(=O)[nH]c4ccccc4c3n2C)C1 (stereo not drawn) | inactive | 
O=S(=O)(c1ccc2ccccc2c1)N1CCN=C1SCc1cccnc1 | inactive | 
CCC(CC)C1C(C#N)=C(N)Oc2n[nH]c(C)c21 (stereo not drawn) | inactive | 
NC(=O)CSc1nnc(Cc2ccc3c(c2)OCO3)o1 | inconclusive: 3.98 µM [activator, single point] | 
Cc1ccc(NC(=O)COc2cccc(/C=C3\SC(=S)N(CCC(=O)O)C3=O)c2)cc1Cl | inconclusive: 28.2 µM [activator, single point] | 
COc1ccc(CNC(=O)C2Cc3ccccc3CN2C(=O)c2ccco2)cc1 (stereo not drawn) | inconclusive: 3.16 µM [activator, single point] | 
COc1ccccc1N1CCN(C(=O)C2CCCN(S(=O)(=O)c3ccc4c(c3)CCCN4C(C)=O)C2)CC1 (stereo not drawn) | inactive | 
O=S(=O)(NC1CC1)c1ccc(S(=O)(=O)N2CCCC3(CCCCC3)C2)cc1 | inactive | 
COc1cc(Cl)ccc1OCc1cc(C(=O)N(C)Cc2cccc3cnccc23)no1 | inactive | 
CCn1c(NC(=O)c2ccc(COc3ccc(C)cc3[N+](=O)[O-])o2)nc2ccccc21 | inactive | 
COc1ccccc1-c1cc(C(=O)Nc2cccnc2Cl)no1 | inconclusive: 3.98 µM [activator, single point] | 
COc1ccc(/C=N/NC(=O)c2cccnc2)cc1 | inconclusive: 5.01 µM [activator, single point] | 
CC(C)(c1ccccc1)c1ccc(OCC(O)CNC2CCN(Cc3ccccc3)CC2)cc1 (stereo not drawn) | inactive | 
Cn1c(N)c(C(=O)COC(=O)/C=C/c2cccc(Br)c2)c(=O)n(C)c1=O | inconclusive: 0.794 µM [activator, full curve, poor fit] | 

SMILES | Potency | activation
Cc1ccc(SCc2nc3ccccc3n2CC(=O)Nc2c(C)cccc2C)cc1 | inconclusive: 5.01 µM [activator, single point] | 
Cc1cccc2c(N=Nc3ccc(S(=O)(=O)Nc4ccc(Cl)cc4)cc3[N+](=O)[O-])c(O)[nH]c12 | inconclusive: 2.82 µM [activator, full curve] | 
O=C(Cn1cnc([N+](=O)[O-])n1)N/N=C/c1cccc(Cl)c1 | inconclusive: 28.2 µM [activator, single point] | 
Cc1nc(Cc2nnc(SC(C)C(=O)N3c4ccccc4NC(=O)C3(C)C)o2)cs1 (stereo not drawn) | inconclusive: 28.2 µM [activator, single point] | 
Cc1[nH]c(=O)[nH]c(=O)c1S(=O)(=O)N1CCN(c2ccccc2F)CC1 | inconclusive: 28.2 µM [activator, single point] | 
COc1cc2nc(CN(C)Cc3nc4ccccc4c(=O)[nH]3)[nH]c(=O)c2cc1OC | inactive | 
CCOc1cc(/C=C(/C#N)c2nc3ccccc3[nH]2)ccc1Oc1ccc([N+](=O)[O-])cn1 |  | inconclusive: 7.19% [activator]
CS(=O)(=O)Nc1ccccc1N=C(c1ccccc1)c1ccccc1 | inconclusive: 2.82 µM [activator, single point] | 
Cc1cc(C(=O)COC(=O)Cc2c(F)cccc2Cl)c(C)n1C | inactive | 
CC(C)C(=O)NC(c1ccco1)c1c(O)ccc2ccccc12 (stereo not drawn) | inactive | 
Cc1ccc2c(C(=O)CNc3nncs3)c(C)[nH]c2c1 | inactive | 
Oc1ccc(CCc2ccccn2)cc1 | inactive | 
Cc1cccc(NC(=O)COC(=O)c2ccc3c(c2)OCO3)c1C | inconclusive: 5.01 µM [activator, single point] | 
O=C(NCCc1ccc(F)cc1)C(=O)NCC1CCCN1S(=O)(=O)c1ccccc1 (stereo not drawn) | inactive | 
O=C(O)CCCCCCCCCC[n+]1ccccc1 | inconclusive: 3.55 µM [activator, full curve, poor fit] | 
COc1ccc(-c2cc(C(=O)NCCCN3CCCC3=O)c3ccccc3n2)cc1OC | inconclusive: 5.01 µM [activator, single point] | 
C=CCc1cccc2cc(C(=O)NNC(=O)CC#N)c(=O)oc12 | inconclusive: 28.2 µM [activator, single point] | 
O=S(=O)(c1ccc(Cl)cc1)N1CCN(S(=O)(=O)N2CCCCCC2)CC1 | inconclusive: 3.16 µM [activator, single point] | 
CC(C)C(=O)NNC(=O)CSc1nnc(-c2ccccc2)c(-c2ccccc2)n1 | inconclusive: 3.55 µM [activator, single point] | 
CSc1cccc(NC(=O)N2CCc3ccc(NC(=O)c4ccccn4)cc3C2)c1 | inconclusive: 3.55 µM [activator, single point] | 
CCOc1ccccc1NC(=S)NC1CC2CCC1C2 (stereo not drawn) | inactive | 
CN(C)/C=C/C(=O)c1cnc(-c2ccccc2)s1 | inconclusive: 22.4 µM [activator, partial curve, poor fit] | 
COC(=O)c1cn(NC(=O)Cc2ccccc2OC)c(=O)c2ccccc12 | inconclusive: 5.01 µM [activator, single point] | 
CN(/N=C/c1cc(Cl)ccc1O)C1=NS(=O)(=O)c2ccccc21 | inactive | 
CC(=O)Nc1ccc(S(=O)(=O)N2c3ccc(F)cc3CCC2C)cc1 (stereo not drawn) | inactive | 

SMILES | Potency | activation
Cc1ccccc1OCC(=O)Nc1ccccc1-c1ccccc1 | inconclusive: 28.2 µM [activator, single point] | 
COc1ccc2c(=O)cc(CO)oc2c1 | inactive | 
CCCc1ccc2oc(C(=O)N(Cc3ccncc3)CC3CCCO3)c(C)c2c1 (stereo not drawn) | inconclusive: 5.01 µM [activator, single point] | 
Cc1ccc(-c2csc3ncnc(N4CCN(c5ccccc5O)CC4)c23)cc1 | inconclusive: 0.447 µM [activator, full curve, poor fit] | 
Cc1ccccc1NC(=O)c1cccc(NC(=O)c2ccco2)c1 | inactive | 
O=C(CN1CCOCC1)NNc1c2ccccc2nc2ccccc12 | inactive | 
COc1ccc(N2CCN(C(CNS(=O)(=O)c3ccccc3)c3ccccc3)CC2)cc1 (stereo not drawn) | inconclusive: 3.16 µM [activator, single point] | 
CCc1nnc2n1N=C(c1ccccc1)CS2 | inconclusive: 0.447 µM [activator, partial curve, poor fit] | 
CCC(C)C(NC(N)=O)C(=O)Nc1ccc(OCc2ccccc2)cc1 (stereo not drawn) | inconclusive: 5.01 µM [activator, single point] | 
O=C(COc1ccccc1)NCc1n[nH]c(=S)n1-c1ccccc1 | inactive | 
Cc1ccc(-c2csc(NC(=O)CSc3nc(C)cc(=O)[nH]3)n2)cc1 | inconclusive: 1.12 µM [activator, single point] | 
COc1cccc(NC(=O)CCc2c(C)nn(-c3ccc(N4CCOCC4)nn3)c2C)c1 | inconclusive: 2.82 µM [activator, single point] | 
CCOC(=O)/C=C1\SCC(=O)N1CC(=O)Nc1cccc(F)c1 | inconclusive: 25.1 µM [activator, single point] | 
COc1ccc(S(=O)(=O)N2CCCCC2)cc1NC(=O)c1ccc2c(c1)OCO2 | inactive | 
CC(C)Cn1c(N)c(C(=O)CSc2nnnn2C)c(=O)n(C)c1=O | inactive | 
Cc1ccc([C@@H]2[C@@H]3C(=O)N(C)C(=O)[C@@H]3[C@]3(Cc4ccccc4)C(=O)N(Cc4ccccn4)CC(=O)N23)o1 | inactive | 
Cn1ncc(SCc2ccccc2)c(Cl)c1=O | inactive | 
O=C(c1cccc(F)c1)N1CCCC(C(=O)N2CCCCC2)C1 (stereo not drawn) | inconclusive: 3.16 µM [activator, partial curve, poor fit] | 
Cc1cc(C)cc(Oc2ccc(-c3nnc(-c4ccccc4)o3)cc2[N+](=O)[O-])c1 |  | inconclusive: -47.1% [activator]
O=C(NCc1cccc(Cl)c1)c1cccc(S(=O)(=O)N2CCCC2)c1 | inconclusive: 11.2 µM [activator, partial curve, poor fit] | 
CN(C)/C=C(\C(=O)c1ccc(Cl)cc1)c1nnnn1-c1ccc(Cl)cc1 | inconclusive: 20 µM [activator, single point] | 
Cc1cc2ncc(-c3ccccc3)nc2cc1C | inconclusive: 2.24 µM [activator, partial curve, poor fit] | 
COc1ccc(NC(=S)N(Cc2cccnc2)Cc2cc3cc(OC)c(OC)cc3[nH]c2=O)cc1 | inconclusive: 2.82 µM [activator, full curve, poor fit] | 

Shown as a markdown table: part of the list above.

| SMILES | Potency | activation |
| --- | --- | --- |
| CN(/N=C/c1cc(Cl)ccc1O)C1=NS(=O)(=O)c2ccccc21 | inactive |  |
| CC(=O)Nc1ccc(S(=O)(=O)N2c3ccc(F)cc3CCC2C)cc1 (stereo not drawn) | inactive |  |
| Cc1ccccc1OCC(=O)Nc1ccccc1-c1ccccc1 | inconclusive: 28.2 µM [activator, single point] |  |
| COc1ccc2c(=O)cc(CO)oc2c1 | inactive |  |
| CCCc1ccc2oc(C(=O)N(Cc3ccncc3)CC3CCCO3)c(C)c2c1 (stereo not drawn) | inconclusive: 5.01 µM [activator, single point] |  |
| Cc1ccc(-c2csc3ncnc(N4CCN(c5ccccc5O)CC4)c23)cc1 | inconclusive: 0.447 µM [activator, full curve, poor fit] |  |
| Cc1ccccc1NC(=O)c1cccc(NC(=O)c2ccco2)c1 | inactive |  |
| O=C(CN1CCOCC1)NNc1c2ccccc2nc2ccccc12 | inactive |  |
| COc1ccc(N2CCN(C(CNS(=O)(=O)c3ccccc3)c3ccccc3)CC2)cc1 (stereo not drawn) | inconclusive: 3.16 µM [activator, single point] |  |
| CCc1nnc2n1N=C(c1ccccc1)CS2 | inconclusive: 0.447 µM [activator, partial curve, poor fit] |  |
| CCC(C)C(NC(N)=O)C(=O)Nc1ccc(OCc2ccccc2)cc1 (stereo not drawn) | inconclusive: 5.01 µM [activator, single point] |  |
| O=C(COc1ccccc1)NCc1n[nH]c(=S)n1-c1ccccc1 | inactive |  |
| Cc1ccc(-c2csc(NC(=O)CSc3nc(C)cc(=O)[nH]3)n2)cc1 | inconclusive: 1.12 µM [activator, single point] |  |
| COc1cccc(NC(=O)CCc2c(C)nn(-c3ccc(N4CCOCC4)nn3)c2C)c1 | inconclusive: 2.82 µM [activator, single point] |  |
| CCOC(=O)/C=C1\SCC(=O)N1CC(=O)Nc1cccc(F)c1 | inconclusive: 25.1 µM [activator, single point] |  |
| COc1ccc(S(=O)(=O)N2CCCCC2)cc1NC(=O)c1ccc2c(c1)OCO2 | inactive |  |
| CC(C)Cn1c(N)c(C(=O)CSc2nnnn2C)c(=O)n(C)c1=O | inactive |  |
| Cc1ccc([C@@H]2[C@@H]3C(=O)N(C)C(=O)[C@@H]3[C@]3(Cc4ccccc4)C(=O)N(Cc4ccccn4)CC(=O)N23)o1 | inactive |  |
| Cn1ncc(SCc2ccccc2)c(Cl)c1=O | inactive |  |
| O=C(c1cccc(F)c1)N1CCCC(C(=O)N2CCCCC2)C1 (stereo not drawn) | inconclusive: 3.16 µM [activator, partial curve, poor fit] |  |
| Cc1cc(C)cc(Oc2ccc(-c3nnc(-c4ccccc4)o3)cc2[N+](=O)[O-])c1 |  | inconclusive: -47.1% [activator] |
